Assay results from the supplement of paper PMC10849652.
Some of the results follow.

Amino acid sequences for entries named in this document (tags omitted). A change or cut given only in a name is not applied to a line headed by its entry.
UniProt Q6FIF0: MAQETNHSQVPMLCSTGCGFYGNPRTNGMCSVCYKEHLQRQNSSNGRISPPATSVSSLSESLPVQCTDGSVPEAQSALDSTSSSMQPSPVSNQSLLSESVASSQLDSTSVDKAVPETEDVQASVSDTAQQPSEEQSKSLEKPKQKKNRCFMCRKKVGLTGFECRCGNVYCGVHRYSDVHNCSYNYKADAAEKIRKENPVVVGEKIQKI
UniProt O75191: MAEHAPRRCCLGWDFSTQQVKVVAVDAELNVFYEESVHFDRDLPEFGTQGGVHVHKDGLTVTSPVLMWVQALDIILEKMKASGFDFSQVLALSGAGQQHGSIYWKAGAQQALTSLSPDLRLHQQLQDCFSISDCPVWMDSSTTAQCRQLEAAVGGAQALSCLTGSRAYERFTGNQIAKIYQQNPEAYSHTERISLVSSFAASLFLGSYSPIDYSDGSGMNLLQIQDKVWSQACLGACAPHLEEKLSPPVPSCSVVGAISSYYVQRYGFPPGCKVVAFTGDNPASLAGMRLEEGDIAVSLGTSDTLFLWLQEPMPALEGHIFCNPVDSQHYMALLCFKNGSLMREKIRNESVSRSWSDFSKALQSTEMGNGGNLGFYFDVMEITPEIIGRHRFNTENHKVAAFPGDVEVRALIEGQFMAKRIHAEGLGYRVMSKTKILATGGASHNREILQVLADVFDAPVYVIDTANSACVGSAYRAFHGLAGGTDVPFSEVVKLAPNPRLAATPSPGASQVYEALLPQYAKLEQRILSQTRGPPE
UniProt Q8IZ13: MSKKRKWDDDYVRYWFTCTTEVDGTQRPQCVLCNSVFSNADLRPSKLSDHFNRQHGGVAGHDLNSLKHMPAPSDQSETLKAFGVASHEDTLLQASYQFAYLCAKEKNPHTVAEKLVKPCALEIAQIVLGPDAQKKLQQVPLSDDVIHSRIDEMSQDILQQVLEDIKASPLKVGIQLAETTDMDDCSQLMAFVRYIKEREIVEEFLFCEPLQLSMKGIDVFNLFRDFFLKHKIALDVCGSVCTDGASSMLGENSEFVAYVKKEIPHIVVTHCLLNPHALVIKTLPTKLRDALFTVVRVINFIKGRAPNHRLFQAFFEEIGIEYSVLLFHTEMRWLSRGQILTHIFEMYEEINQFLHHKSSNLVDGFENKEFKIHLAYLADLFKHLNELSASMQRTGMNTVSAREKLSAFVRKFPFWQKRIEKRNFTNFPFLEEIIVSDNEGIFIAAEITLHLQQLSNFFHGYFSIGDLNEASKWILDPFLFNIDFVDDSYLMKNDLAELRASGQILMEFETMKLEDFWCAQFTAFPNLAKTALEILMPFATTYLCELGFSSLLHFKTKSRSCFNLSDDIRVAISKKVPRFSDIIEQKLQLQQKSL
UniProt Q96K21: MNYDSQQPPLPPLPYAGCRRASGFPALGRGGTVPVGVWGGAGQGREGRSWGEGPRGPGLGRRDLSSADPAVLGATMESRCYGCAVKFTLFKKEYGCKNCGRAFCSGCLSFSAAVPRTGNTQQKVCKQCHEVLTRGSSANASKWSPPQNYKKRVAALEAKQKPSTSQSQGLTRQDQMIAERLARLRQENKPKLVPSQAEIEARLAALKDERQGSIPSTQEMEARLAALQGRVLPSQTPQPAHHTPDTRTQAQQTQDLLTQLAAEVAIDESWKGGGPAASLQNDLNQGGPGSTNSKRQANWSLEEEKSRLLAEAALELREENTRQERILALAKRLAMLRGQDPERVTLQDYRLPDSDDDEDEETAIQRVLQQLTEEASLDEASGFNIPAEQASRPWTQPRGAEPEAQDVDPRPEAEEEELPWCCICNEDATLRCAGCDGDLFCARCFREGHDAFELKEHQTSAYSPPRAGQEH
UniProt Q96JP5: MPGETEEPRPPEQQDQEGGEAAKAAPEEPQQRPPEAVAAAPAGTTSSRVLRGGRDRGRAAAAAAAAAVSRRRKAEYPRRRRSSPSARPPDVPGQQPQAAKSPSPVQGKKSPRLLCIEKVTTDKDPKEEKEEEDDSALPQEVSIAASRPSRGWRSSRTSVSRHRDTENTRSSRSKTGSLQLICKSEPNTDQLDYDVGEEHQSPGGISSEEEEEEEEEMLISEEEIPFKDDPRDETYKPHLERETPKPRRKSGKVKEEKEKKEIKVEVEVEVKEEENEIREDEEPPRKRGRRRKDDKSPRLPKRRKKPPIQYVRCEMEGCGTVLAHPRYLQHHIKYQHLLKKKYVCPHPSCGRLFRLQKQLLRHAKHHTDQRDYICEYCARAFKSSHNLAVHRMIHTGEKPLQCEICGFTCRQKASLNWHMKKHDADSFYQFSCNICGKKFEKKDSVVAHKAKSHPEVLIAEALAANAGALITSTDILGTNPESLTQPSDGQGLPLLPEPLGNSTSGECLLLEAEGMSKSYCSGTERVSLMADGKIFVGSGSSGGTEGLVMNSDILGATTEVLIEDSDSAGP
UniProt O60315: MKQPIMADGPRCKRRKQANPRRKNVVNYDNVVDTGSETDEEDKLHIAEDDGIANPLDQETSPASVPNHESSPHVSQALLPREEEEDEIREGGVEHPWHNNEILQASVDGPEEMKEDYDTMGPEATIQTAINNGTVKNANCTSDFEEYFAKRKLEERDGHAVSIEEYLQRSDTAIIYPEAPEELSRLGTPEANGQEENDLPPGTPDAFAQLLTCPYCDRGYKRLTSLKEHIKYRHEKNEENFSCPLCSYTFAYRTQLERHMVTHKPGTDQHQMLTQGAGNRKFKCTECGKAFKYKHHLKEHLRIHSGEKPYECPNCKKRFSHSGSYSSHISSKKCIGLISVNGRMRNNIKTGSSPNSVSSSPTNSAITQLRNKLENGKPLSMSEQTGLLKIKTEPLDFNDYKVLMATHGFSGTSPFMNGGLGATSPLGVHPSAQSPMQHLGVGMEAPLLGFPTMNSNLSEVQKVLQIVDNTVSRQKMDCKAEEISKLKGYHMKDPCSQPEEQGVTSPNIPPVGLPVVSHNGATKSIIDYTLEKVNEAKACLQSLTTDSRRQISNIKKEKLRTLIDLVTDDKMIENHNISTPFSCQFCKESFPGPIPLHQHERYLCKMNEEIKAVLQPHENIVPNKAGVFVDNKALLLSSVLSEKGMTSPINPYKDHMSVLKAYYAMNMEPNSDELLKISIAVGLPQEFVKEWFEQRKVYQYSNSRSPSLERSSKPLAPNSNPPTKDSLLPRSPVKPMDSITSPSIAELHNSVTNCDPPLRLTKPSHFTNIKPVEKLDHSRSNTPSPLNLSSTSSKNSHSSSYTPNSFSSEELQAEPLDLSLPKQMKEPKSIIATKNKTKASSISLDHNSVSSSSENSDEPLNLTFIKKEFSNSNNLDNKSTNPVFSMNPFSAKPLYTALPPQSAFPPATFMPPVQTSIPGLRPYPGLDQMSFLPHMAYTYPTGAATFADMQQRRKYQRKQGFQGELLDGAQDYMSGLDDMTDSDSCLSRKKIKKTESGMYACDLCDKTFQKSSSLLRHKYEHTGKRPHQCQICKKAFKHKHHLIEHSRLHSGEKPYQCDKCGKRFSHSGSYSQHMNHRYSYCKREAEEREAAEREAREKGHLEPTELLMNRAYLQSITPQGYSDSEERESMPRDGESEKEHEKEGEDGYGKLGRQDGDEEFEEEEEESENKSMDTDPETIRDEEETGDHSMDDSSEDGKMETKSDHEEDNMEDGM
UniProt P54577: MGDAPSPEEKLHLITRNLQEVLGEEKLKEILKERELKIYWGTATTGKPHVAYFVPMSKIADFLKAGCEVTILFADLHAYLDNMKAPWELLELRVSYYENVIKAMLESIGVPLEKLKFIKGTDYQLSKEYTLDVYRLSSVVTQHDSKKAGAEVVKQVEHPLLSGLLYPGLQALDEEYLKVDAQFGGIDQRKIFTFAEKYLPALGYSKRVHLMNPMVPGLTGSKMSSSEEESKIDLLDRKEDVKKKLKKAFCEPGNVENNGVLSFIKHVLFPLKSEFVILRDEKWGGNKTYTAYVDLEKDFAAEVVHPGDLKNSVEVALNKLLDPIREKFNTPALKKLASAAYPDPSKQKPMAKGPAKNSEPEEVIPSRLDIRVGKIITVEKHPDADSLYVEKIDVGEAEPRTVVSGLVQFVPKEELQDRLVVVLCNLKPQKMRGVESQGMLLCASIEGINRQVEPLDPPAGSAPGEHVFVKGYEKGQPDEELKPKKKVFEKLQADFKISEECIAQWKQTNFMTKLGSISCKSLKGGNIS
UniProt Q6NZY4: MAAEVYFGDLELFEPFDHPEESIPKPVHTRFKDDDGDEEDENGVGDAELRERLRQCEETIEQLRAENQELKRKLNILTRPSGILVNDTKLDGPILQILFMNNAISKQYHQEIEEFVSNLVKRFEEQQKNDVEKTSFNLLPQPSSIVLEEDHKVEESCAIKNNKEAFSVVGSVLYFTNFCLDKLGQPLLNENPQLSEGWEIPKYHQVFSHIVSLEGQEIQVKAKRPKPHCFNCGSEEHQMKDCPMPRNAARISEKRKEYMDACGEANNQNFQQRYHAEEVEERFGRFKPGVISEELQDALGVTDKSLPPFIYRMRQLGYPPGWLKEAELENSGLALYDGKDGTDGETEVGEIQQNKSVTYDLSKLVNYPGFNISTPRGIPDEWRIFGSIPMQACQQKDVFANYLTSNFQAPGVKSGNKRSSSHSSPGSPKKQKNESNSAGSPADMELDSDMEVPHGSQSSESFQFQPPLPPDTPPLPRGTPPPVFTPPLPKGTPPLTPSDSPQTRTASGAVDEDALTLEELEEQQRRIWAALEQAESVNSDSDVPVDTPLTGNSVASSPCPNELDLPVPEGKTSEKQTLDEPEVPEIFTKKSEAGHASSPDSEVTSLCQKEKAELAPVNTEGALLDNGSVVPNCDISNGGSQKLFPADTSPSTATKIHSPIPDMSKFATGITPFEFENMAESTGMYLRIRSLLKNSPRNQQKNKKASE
UniProt Q9UPT8: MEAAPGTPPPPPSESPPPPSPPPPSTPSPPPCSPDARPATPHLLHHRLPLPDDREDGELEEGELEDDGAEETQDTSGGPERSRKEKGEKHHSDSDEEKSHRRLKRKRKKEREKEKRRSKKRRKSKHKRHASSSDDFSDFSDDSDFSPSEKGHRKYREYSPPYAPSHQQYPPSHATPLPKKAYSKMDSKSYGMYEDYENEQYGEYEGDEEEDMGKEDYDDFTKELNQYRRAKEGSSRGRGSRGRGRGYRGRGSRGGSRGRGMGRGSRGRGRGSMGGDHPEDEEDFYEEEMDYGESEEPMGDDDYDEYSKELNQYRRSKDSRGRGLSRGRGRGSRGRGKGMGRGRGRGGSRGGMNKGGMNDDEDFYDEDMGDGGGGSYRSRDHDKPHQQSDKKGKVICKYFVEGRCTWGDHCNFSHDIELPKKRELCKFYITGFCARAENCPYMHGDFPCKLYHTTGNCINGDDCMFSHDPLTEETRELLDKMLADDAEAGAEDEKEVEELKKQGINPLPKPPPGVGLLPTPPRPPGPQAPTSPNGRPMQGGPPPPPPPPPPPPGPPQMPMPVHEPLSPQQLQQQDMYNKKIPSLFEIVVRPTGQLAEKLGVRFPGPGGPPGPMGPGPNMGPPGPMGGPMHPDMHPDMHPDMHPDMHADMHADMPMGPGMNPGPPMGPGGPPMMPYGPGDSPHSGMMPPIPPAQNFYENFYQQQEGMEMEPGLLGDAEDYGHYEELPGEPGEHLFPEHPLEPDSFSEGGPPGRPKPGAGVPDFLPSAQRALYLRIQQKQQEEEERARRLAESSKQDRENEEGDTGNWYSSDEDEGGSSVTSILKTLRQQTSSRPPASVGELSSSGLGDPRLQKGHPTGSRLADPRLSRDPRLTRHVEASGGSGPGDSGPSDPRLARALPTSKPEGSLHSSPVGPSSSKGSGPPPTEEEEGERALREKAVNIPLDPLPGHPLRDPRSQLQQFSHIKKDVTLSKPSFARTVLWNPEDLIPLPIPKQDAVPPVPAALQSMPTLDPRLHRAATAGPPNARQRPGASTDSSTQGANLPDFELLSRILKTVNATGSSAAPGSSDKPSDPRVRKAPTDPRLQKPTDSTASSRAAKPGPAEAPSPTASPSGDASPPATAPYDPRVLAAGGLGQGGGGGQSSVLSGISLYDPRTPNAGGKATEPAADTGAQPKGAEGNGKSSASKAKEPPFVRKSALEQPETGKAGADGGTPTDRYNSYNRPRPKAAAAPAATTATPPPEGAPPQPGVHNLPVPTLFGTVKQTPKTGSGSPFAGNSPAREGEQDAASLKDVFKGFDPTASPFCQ
UniProt P61981: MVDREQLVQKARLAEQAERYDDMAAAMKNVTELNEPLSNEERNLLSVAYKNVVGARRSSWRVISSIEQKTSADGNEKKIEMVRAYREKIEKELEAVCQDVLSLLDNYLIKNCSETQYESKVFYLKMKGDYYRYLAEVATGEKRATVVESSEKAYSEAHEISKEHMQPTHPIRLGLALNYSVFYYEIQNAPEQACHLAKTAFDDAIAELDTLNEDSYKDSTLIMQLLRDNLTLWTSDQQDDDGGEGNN

Experiments:
Experiment in all cases: log2 fold change, soluble protein after heating vs DMSO (PISA); higher = thermal stabilisation; K562 lysate, 10 uM; active = over 0.2 and 3.5 SD of the protein, either way, in both replicates (recomputed)
erlotinib = compound: C#Cc1cccc(Nc2ncnc3cc(OCCOC)c(OCCOC)cc23)c1 [erlotinib]
Summary of the method: (§1)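 K562 pellets were dounce-homogenised in PBS pH 7.4 with 1 mM MgCl2, and the crude extract at 1 mg/mL protein was treated with 10 μM compound for 30 min. Aliquots were heated for 3 min across 48°C-58°C, pooled, and brought to 0.5% NP-40 at 4°C; soluble protein was the supernatant after 21,000xg for 90 min. Soluble protein was quantified by TMTpro 16plex LC-MS/MS with channel sums equalised, and reported as log2 fold change in thermal stability against DMSO controls, with values from duplicates.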

[1] = compound: C/C(=N\NC(=O)C1=CC(=CC=C1)S(=O)(=O)N2CCOCC2)/C3=C(C=CC(=C3)Cl)O
Summary of the method: as §1

[2] = compound: C1=CC(=CC=C1C2=NC3=C(N2)C=C(C=C3)C(=O)N)OC4=CC=C(C=C4)Cl
Summary of the method: as §1

[3] = compound: C1=CC2=C(C=CC(=C2)/C=C\3/C(=O)NC(=NCC4=CC=CS4)S3)N=C1
Summary of the method: as §1

[4] = compound: C1=CC2=NC=CN=C2C=C1/C=C/3\C(=O)NC(=O)S3
Summary of the method: as §1

[5] = compound: C1=CC=C(C=C1)C2=NC(=C(N2)C3=CC=NC=C3)C4=CC(=C(C=C4)Cl)O
Summary of the method: as §1

[6] = compound: C1=CC=C2C(=C1)C3=NNC4=CC=CC(=C43)C2=O
Summary of the method: as §1

[7] = compound: C1CCN(C1)C(=O)NC2=CC=CC(=C2)NC3=NC=C(C(=N3)NCCC4=CN=CN4)Br
Summary of the method: as §1

[8] = compound: C1CN(CCC1(CC2=CC=C(C=C2)Cl)N)C3=NC=NC4=C3C=CN4
Summary of the method: as §1

IRAK-1-4 Inhibitor I = compound: C1COCCN1CCN2C3=CC=CC=C3N=C2NC(=O)C4=CC(=CC=C4)[N+](=O)[O-] [IRAK-1-4 Inhibitor I]
Summary of the method: as §1

ibrutinib = compound: C=CC(=O)N1CCC[C@@H](n2nc(-c3ccc(Oc4ccccc4)cc3)c3c(N)ncnc32)C1 [ibrutinib]
Summary of the method: as §1

[9] = compound: CC(=O)c1cnc2ccc(-c3cc(Cl)c(O)c(Cl)c3)nc2c1N[C@H]1CC[C@H](CN(C)C)CC1
Summary of the method: as §1

ralimetinib = compound: CC(C)(C)Cn1c(N)nc2ccc(-c3[nH]c(C(C)(C)C)nc3-c3ccc(F)cc3)nc21 [ralimetinib]
Summary of the method: as §1

[10] = compound: CC(C)(O)CC(=O)NCCn1ccc2ncnc(Nc3ccc(Oc4cccc(C(F)(F)F)c4)c(Cl)c3)c21
Summary of the method: as §1

[11] = compound: CC(C)C1=C2N=C(C=C(N2N=C1)NCC3=CC=CC=C3)NCCCCCCN
Summary of the method: as §1

[12] = compound: CC1=C(C(CC(=O)N1)C2=CC=C(C=C2)C(F)(F)F)C(=O)NC3=C(C=C4C(=C3)C=NN4)F
Summary of the method: as §1

[13] = compound: CC1=C(C2=C(C=C1)C(=O)C3=CC=CC=C3N2CCCN)C
Summary of the method: as §1

[14] = compound: CC1=C(C=C(C=C1)NC(=O)C2=CC(=CC=C2)C(C)(C)C#N)NC3=CC4=C(C=C3)N=CN(C4=O)C
Summary of the method: as §1

[15] = compound: CC1=C(C=C(C=C1)NC(=O)C2=CC(=CC=C2)N(C)C)NC(=O)C3=CC=C(C=C3)O
Summary of the method: as §1

[16] = compound: CC1=CC=C(C=C1)SC2=C3C=C(SC3=CN=C2)C(=O)N
Summary of the method: as §1

Measured: log2 fold change

ZFAND6 (UniProt Q6FIF0)
inactive: erlotinib 0.037 | [1] 0.006 | [2] -0.033 | [3] 0.013 | [4] 0.041 | [5] -0.026 | [6] 0.001 | [7] -0.006 | [8] -0.002 | IRAK-1-4 Inhibitor I 0.035 | ibrutinib 0.049 | [9] -0.015 | ralimetinib 0.017 | [10] -0.095 | [11] -0.016 | [12] -0.016 | [13] 0.014 | [14] 0.1 | [15] -0.054 | [16] -0.023

XYLB (UniProt O75191)
inactive: erlotinib -0.024 | [1] 0.002 | [2] -0.036 | [3] -0.009 | [4] 0.092 | [5] -0.049 | [6] -0.147 | [7] -0.046 | [8] 0.061 | IRAK-1-4 Inhibitor I 0.035 | ibrutinib 0.045 | [9] -0.087 | ralimetinib 0.038 | [10] -0.012 | [11] 0.022 | [12] 0.058 | [13] -0.042 | [14] 0.051 | [15] 0.093 | [16] 0.009

ZBED8 (UniProt Q8IZ13)
inactive: erlotinib -0.001 | [1] 0.111 | [2] 0.013 | [3] 0.186 | [4] -0.058 | [5] 0.037 | [6] -0.169 | [7] -0.038 | [8] 0.086 | IRAK-1-4 Inhibitor I 0.005 | ibrutinib 0.054 | [9] -0.011 | ralimetinib 0.039 | [10] -0.041 | [11] 0.025 | [12] 0.027 | [13] -0.01 | [14] 0.023 | [15] -0.06 | [16] 0.022

ZFYVE19 (UniProt Q96K21)
inactive: erlotinib -0.017 | [1] -0.056 | [2] 0.016 | [3] -0.024 | [4] -0.026 | [5] 0.055 | [6] 0.007 | [7] -0.031 | [8] 0.012 | IRAK-1-4 Inhibitor I -0.027 | ibrutinib -0.051 | [9] -0.031 | ralimetinib -0.004 | [10] 0.009 | [11] -0.015 | [12] -0.028 | [13] -0.067 | [14] -0.037 | [15] -0.013 | [16] -0.042

XPO5 (UniProt Q9HAV4)
inactive: erlotinib 0.026 | [1] 0.024 | [2] -0.02 | [3] 0.005 | [4] 0 | [5] -0.003 | [6] -0.044 | [7] 0.008 | [8] 0.035 | IRAK-1-4 Inhibitor I -0.015 | ibrutinib -0.041 | [9] 0.003 | ralimetinib 0 | [10] -0.043 | [11] -0.039 | [12] -0.014 | [13] -0.01 | [14] -0.004 | [15] 0.043 | [16] -0.01

ZFP91 (UniProt Q96JP5)
inactive: erlotinib -0.054 | [1] -0.169 | [2] 0.006 | [3] 0.064 | [4] 0.004 | [5] -0.028 | [6] 0.077 | [7] 0 | [8] -0.004 | IRAK-1-4 Inhibitor I 0.025 | ibrutinib 0.022 | [9] -0.05 | ralimetinib 0.071 | [10] -0.017 | [11] 0.03 | [12] 0 | [13] -0.04 | [14] 0.096 | [15] 0.042 | [16] -0.065

YWHAH (UniProt Q04917)
inactive: erlotinib -0.02 | [1] 0.039 | [2] 0 | [3] 0.001 | [4] -0.041 | [5] 0.006 | [6] 0.006 | [7] 0.006 | [8] -0.003 | IRAK-1-4 Inhibitor I -0.016 | ibrutinib 0.001 | [9] -0.001 | ralimetinib -0.039 | [10] 0.017 | [11] 0.032 | [12] 0.013 | [13] 0.004 | [14] -0.051 | [15] 0.012 | [16] 0.012

YIPF6 (UniProt Q96EC8)
inactive: erlotinib 0.021 | [1] -0.056 | [2] 0.042 | [3] 0.131 | [4] 0.08 | [5] 0.078 | [6] -0.106 | [7] 0.041 | [8] 0.06 | IRAK-1-4 Inhibitor I 0.077 | ibrutinib -0.072 | [9] 0.044 | ralimetinib 0.065 | [10] -0.173 | [11] -0.034 | [12] 0.065 | [13] -0.007 | [14] -0.008 | [15] 0.029 | [16] -0.023

ZEB2 (UniProt O60315)
inactive: erlotinib -0.055 | [1] -0.087 | [2] 0.014 | [3] -0.145 | [4] 0.095 | [5] -0.028 | [6] -0.017 | [7] -0.053 | [8] -0.055 | IRAK-1-4 Inhibitor I 0.049 | ibrutinib -0.134 | [9] 0.137 | ralimetinib -0.009 | [10] -0.027 | [11] 0.036 | [12] -0.018 | [13] 0.058 | [14] -0.032 | [15] 0.022 | [16] 0.05

YARS (UniProt P54577)
inactive: erlotinib 0.012 | [1] 0.025 | [2] -0.014 | [3] -0.007 | [4] 0.001 | [5] 0.001 | [6] -0.014 | [7] -0.001 | [8] -0.002 | IRAK-1-4 Inhibitor I -0.001 | ibrutinib -0.017 | [9] 0.004 | ralimetinib 0.011 | [10] -0.004 | [11] 0.013 | [12] -0.013 | [13] 0.022 | [14] -0.006 | [15] 0.024 | [16] 0.018

ZFAND2B (UniProt Q8WV99)
inactive: erlotinib 0.013 | [1] 0.125 | [2] -0.028 | [3] -0.08 | [4] 0.008 | [5] 0.043 | [6] 0.059 | [7] -0.053 | [8] 0.07 | IRAK-1-4 Inhibitor I -0.045 | ibrutinib 0.014 | [9] 0.054 | ralimetinib 0.073 | [10] -0.056 | [11] -0.094 | [12] -0.066 | [13] -0.033 | [14] 0.131 | [15] -0.129 | [16] -0.043

YTHDF1 (UniProt Q9BYJ9)
inactive: erlotinib 0 | [1] -0.054 | [2] -0.033 | [3] -0.072 | [4] 0.106 | [5] -0.087 | [6] -0.059 | [7] 0.041 | [8] -0.02 | IRAK-1-4 Inhibitor I 0.084 | ibrutinib -0.029 | [9] 0.015 | ralimetinib 0.016 | [10] -0.05 | [11] 0.049 | [12] 0.001 | [13] -0.054 | [14] -0.249 | [15] 0.023 | [16] -0.064

ZCCHC8 (UniProt Q6NZY4)
inactive: erlotinib 0.016 | [1] 0.04 | [2] 0.02 | [3] -0.02 | [4] 0.017 | [5] 0.015 | [6] 0 | [7] -0.011 | [8] 0.011 | IRAK-1-4 Inhibitor I 0.014 | ibrutinib 0.013 | [9] 0.008 | ralimetinib -0.005 | [10] -0.027 | [11] -0.011 | [12] 0.023 | [13] -0.013 | [14] 0.011 | [15] 0.02 | [16] -0.007

ZC3H4 (UniProt Q9UPT8)
inactive: erlotinib -0.027 | [1] -0.006 | [2] 0.035 | [3] -0.014 | [4] -0.051 | [5] -0.003 | [6] -0.01 | [7] -0.039 | [8] 0 | IRAK-1-4 Inhibitor I 0.028 | ibrutinib 0.02 | [9] -0.04 | ralimetinib -0.011 | [10] -0.041 | [11] 0.003 | [12] -0.007 | [13] -0.095 | [14] 0.093 | [15] 0.024 | [16] -0.022

2 consecutive entries already listed:
YARS (UniProt P54577)
inactive: erlotinib 0.012 | [1] 0.025 | [2] -0.014 | [3] -0.007 | [4] 0.001 | [5] 0.001 | [6] -0.014 | [7] -0.001 | [8] -0.002 | IRAK-1-4 Inhibitor I -0.001 | ibrutinib -0.017 | [9] 0.004 | ralimetinib 0.011 | [10] -0.004 | [11] 0.013 | [12] -0.013 | [13] 0.022 | [14] -0.006 | [15] 0.024 | [16] 0.018

ZFAND2B (UniProt Q8WV99)
inactive: erlotinib 0.013 | [1] 0.125 | [2] -0.028 | [3] -0.08 | [4] 0.008 | [5] 0.043 | [6] 0.059 | [7] -0.053 | [8] 0.07 | IRAK-1-4 Inhibitor I -0.045 | ibrutinib 0.014 | [9] 0.054 | ralimetinib 0.073 | [10] -0.056 | [11] -0.094 | [12] -0.066 | [13] -0.033 | [14] 0.131 | [15] -0.129 | [16] -0.043

Continued:

YWHAG (UniProt P61981)
inactive: erlotinib -0.006 | [1] 0.037 | [2] 0.014 | [3] 0.015 | [4] 0.004 | [5] 0.013 | [6] 0.032 | [7] 0.017 | [8] 0.009 | IRAK-1-4 Inhibitor I -0.039 | ibrutinib 0.001 | [9] -0.002 | ralimetinib -0.037 | [10] 0.01 | [11] -0.025 | [12] -0.017 | [13] 0.007 | [14] 0.01 | [15] 0.008 | [16] -0.007
